From EP2258724A1
These are yes or no findings as the source states them, for the method shown. Some results given as binding are weak or reduced against the parent protein; the word gives no strength. For part of these data: Where a sequence is shown, tags or fusion partners need not be part of it.

How the values were obtained:
[1] = biological target: T1, isolated recombinant mouse CD83 protein (mouse) (UniProt O88324); assay: ELISA, isolated recombinant mouse CD83
T1 sequence: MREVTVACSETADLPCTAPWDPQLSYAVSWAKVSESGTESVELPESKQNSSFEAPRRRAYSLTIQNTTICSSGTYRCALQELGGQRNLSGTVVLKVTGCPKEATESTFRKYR

[2] = biological target: T1, isolated recombinant mouse CD83 protein (mouse); assay: Biacore, isolated recombinant mouse CD83
[3] = biological target: T2, recombinant human CD83 protein, chimeric protein joined to a portion of an immunoglobulin Fc fragment (human) (UniProt Q01151); assay: ELISA, isolated recombinant human CD83 (Fc chimera)
T2 sequence: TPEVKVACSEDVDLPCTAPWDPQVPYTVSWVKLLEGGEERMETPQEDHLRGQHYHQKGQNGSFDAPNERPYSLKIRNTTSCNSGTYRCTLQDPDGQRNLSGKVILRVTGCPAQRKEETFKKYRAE

[4] = biological target: T2, recombinant human CD83 protein, chimeric protein joined to a portion of an immunoglobulin Fc fragment (human); assay: Biacore, isolated recombinant human CD83 (Fc chimera)

Measured: binding

B1: 95F04 monoclonal anti-CD83 antibody (antibody, mouse IgG1, V domains shown)
VH: QSVEESGGRLVTPGTPLTLTCTVSGIDLSSNAMIWVRQAPREGLEWIGAMDSNSRTYYATWAKGRFTISRTSSITVDLKITSPTTEDTATYFCARGDGGSSDYTEMWGPGTLVTVSS
VL: QAVVTQTTSPVSAPVGGTVTINCQSSQSVYGNNELSWYQQKPGQPPKLLIYQASSLASGVPSRFKGSGSGTQFTLTISDLECDDAATYYCLGEYSISADNHFGGGTEVVVKR
binds: [1] | [2] | [3] | [4]

B2: 96G08 monoclonal anti-CD83 antibody (antibody, mouse IgG1, V domains shown)
VH: QSVEESGGRLVTPGTPLTLTCTVSGIDLSSDGISWVRQAPGKGLEWIGIISSGGNTYYASWAKGRFTISRTSTTVDLKMTSLTTEDTATYFCARVVGGTYSIWGQGTLVTVSS
VL: AQVLTQTASPVSAPVGGTVTINCQSSQSVYNNDFLSWYQQKPGQPPKLLIYYASTLASGVPSRFKGSGSGTQFTLTISDLECDDAATYYCTGTYGNSAWYEDAFGGGTEVVVKR
binds: [1] | [2]
